At least one structure is not confirmed: it was looked up by name or label, or the drawing left a doubt.
System: Hydrogenophaga sp. PML113 MHETase (putative MHETase, Genbank WP_083293388.1), C-terminal His tag
Test: Michaelis-Menten kinetics of MHETase and variants (substrate inhibition model)
Assay type: biochemical
Settings: MHET 10-250 μM, 5 nM enzyme, pH 7.5, 30° C.

Which Vmax does the source give for `O=C(O)c1ccc(C(=O)OCCO)cc1` [MHET, mono-(2-hydroxyethyl) terephthalate] here?
The Vmax was 0.013 ± 0.003 µM/s.
